Values of other authors in patent US9029557B2, “Labeled A4B2 ligands and methods therefor” (priority 2004, dated 2015).
Some entries share one result that the patent states for a list of compounds. For at least one compound, name, drawing or mass did not settle the structure.

Sequences of proteins named here, by UniProt entry; tags and fusion partners are left off. Residues count along the entry.
UniProt P17787, 26-502: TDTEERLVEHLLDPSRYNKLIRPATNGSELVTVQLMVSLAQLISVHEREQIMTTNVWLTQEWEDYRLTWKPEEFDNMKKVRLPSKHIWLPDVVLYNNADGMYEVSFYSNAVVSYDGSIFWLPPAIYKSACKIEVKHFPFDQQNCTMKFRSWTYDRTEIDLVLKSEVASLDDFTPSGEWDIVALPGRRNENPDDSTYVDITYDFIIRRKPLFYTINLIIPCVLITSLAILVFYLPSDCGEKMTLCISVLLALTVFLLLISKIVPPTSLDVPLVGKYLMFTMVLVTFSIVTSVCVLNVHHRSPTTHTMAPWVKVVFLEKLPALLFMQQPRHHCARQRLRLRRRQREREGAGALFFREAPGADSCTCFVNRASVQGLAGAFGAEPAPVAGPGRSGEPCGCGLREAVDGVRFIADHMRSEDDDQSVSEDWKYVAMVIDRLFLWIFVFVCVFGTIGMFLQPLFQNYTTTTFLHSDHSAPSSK
UniProt P43681, 29-627 limits assumed: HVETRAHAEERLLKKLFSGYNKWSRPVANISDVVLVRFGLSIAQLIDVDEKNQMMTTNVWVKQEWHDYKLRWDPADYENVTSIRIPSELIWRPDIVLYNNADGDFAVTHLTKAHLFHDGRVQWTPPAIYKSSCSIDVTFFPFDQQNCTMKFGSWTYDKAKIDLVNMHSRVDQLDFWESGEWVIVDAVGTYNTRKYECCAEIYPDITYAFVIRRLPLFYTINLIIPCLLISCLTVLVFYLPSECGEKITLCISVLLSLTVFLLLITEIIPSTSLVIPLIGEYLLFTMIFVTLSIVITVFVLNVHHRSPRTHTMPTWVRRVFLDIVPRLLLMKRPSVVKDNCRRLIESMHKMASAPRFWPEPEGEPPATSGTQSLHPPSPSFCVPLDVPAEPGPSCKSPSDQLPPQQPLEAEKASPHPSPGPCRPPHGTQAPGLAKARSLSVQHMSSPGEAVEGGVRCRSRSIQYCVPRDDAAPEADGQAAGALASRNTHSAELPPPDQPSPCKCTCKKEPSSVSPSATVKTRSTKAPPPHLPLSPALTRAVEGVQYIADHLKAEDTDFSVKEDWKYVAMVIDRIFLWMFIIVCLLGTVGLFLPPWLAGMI

Molecular target: α4β2 nAChRs (Homo sapiens, UniProt P17787+P43681)
Conditions: comparison agents; cited from earlier work

Q: With Ic1cncc(OC[C@@H]2CCN2)c1 [5-IA85380] as the compound, how does the “time to reach pseudoequilibrium” value read?
A: 4 to 6 h
